# In PubChem BioAssay AID1508600 (Functional Genomics Laboratory (NCATS/FGL), 2020):
# Screen size: about 53,000 sequences; about 3,700 (7%) were called active.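 Rule for the calls: active = gene knockdowns whose robust z-score for IL-1 alpha signal is at least 2 or at most -2, so actives lie on both sides; inactive = the rest.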 The list shows a part of the results.
# Test: Components of the Cytosolic LPS Sensing Pathway: Gene Identification via Genome-wide siRNA Screen;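 note: robust z of the log signal after scaling to non-targeting control siRNA wells of the plate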
# Settings: RAW264.7 macrophages, IL-1a HTRF, actives lie on both sides, screened at 100 nM (by protocol), cells primed 5 h with Pam3CSK4 first
# Method in brief: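 Three distinct siRNAs per gene were tested singly at 100 nM in RAW264.7 macrophages. Following Pam3CSK4 priming and 24 hour LipidA transfection, IL-1a secretion was read by HTRF.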
row,Sequence,z-score
1,GGUGCAAACAGACACCAGATT against Dct,inactive: -0.982
2,GCGAACAGAAAAGACCAAUTT against Col4a5,inactive: -0.346
3,GGAGGAAGAAACAGACAUCTT against Nup37,inactive: 0.32
4,GGCCCUAGAAAUAAUCUGCTT against Anks4b,inactive: 0.0338
5,GGACAAGAUGUUGAGUAUUTT against Plrg1,active: -2.23
6,UUAUGUGGCACAAAUAAAUTT against Olfr138,inactive: -1.4
7,GGAACACUGGUAACUGUAATT against Stradb,inactive: 0.324
8,GGAGGAUCAGUGAGAUUAATT against Wbp4,inactive: 0.572
9,GGAUAGUCUCAGUAACUAUTT against Grin2a,inactive: -1.32
10,GGAAGCCAUGACAUUCAAGTT against Zfp286,inactive: -0.471
11,GGUGAGCAAAGCCAAGAAGTT against Sgpl1,inactive: -1.42
12,GGUCAUGUGUGGUUACAUUTT against Depdc5,inactive: -1.54
13,GCCGAGCUUUUGUGAGUAUTT against Rhobtb2,inactive: 0.247
14,GGUACAAACGUAAGGCCUATT against Leng1,inactive: -0.853
15,GCCAACCUUCGUAAGACACTT against Dgkz,inactive: -0.347
16,GGAUUGACAGUGGUCUAUATT against Copz1,inactive: -0.294
17,GGCAACCAUAGACGAUGAATT against Rerg,active: -2.38
18,GGCAGCUGAAAGAAGAUCUTT against Dffa,active: 3.21
19,GCUGUCGUCUCGUAAUAGUTT against Itprip,inactive: 1.63
20,GGACUAUUGUCUCAUUUGATT against Olfr1189,inactive: 1.04
21,ACAUUGUAAUUCUCACCGUTT against Olfr1322,inactive: 1.12
22,GGAAUGUCUCCUGUCUGUGTT against Pttg1ip,inactive: 0.124
23,GCGGGAACAAGUUGAUAGATT against Pspc1,inactive: -1.35
24,GGCUUUUAUCCCAACAGUGTT against Mbnl3,inactive: -0.475
25,GGUCACAUCGUCCUUACAGTT against Rps6ka4,active: -2.05
26,GGAACAGAUGUGGUUAUAATT against Iars2,inactive: 1.14
27,GGUGGACAUGUGGAAUGAUTT against Ubxn11,inactive: 0.463
28,GGAAGUGAGGAACUGUGUCTT against Prodh2,inactive: -1.34
29,GGAGAUUUUGAAUAGUAUCTT against Smc4,inactive: 1.47
30,GGGUAUACCUAUCAUAGUATT against Gnl3l,inactive: 0.0775

# 2 records drawn at random from the list so far:
row,Sequence,z-score
16,GGAUUGACAGUGGUCUAUATT against Copz1,inactive: -0.294
13,GCCGAGCUUUUGUGAGUAUTT against Rhobtb2,inactive: 0.247
